PubChem BioAssay AID504774, Drosophila RNAi Screening Center | 2011

- Purpose: 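Fly genes whose loss alters survival after alkylation damage to DNA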 (primary screen)
- Cell system: Drosophila Kc167 cells
- Reagent: long dsRNA against Drosophila genes, about 0.25 µg dsRNA per well
- Timing: about 6 days: 3 days knock-down, then 3 days with or without MMS
- Conditions: methyl methanesulphonate 0.004% (w/v) for 3 days after knock-down
- Detection: 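ATP-dependent luminescence as a measure of live cells in MMS-exposed wells, quantile normalised within each plate, with replicate values also given as a mean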
- Reading the numbers: mean viability with MMS and viability with MMS: higher = more surviving cells after MMS
In all, the deposit lists about 23,000 reagents; this is a random part of those with a known target gene and a result. 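Values are quantile-normalised luminescence on an arbitrary scale; higher means more cells surviving MMS.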 Names joined by + are all predicted targets of the reagent.

target	PubChem SID	mean viability with MMS	viability with MMS, replicate 1	viability with MMS, replicate 2
CG31296	SID104192884	3.47e6	3.94e6	3.95e6
CG5890	SID104195701	3.69e6	3.99e6	4.37e6
CG13369	SID104198273	3.51e6	4.00e6	3.98e6
Ance	SID104181657	3.58e6	4.06e6	4.10e6
CG5381	SID104182644	3.62e6	3.87e6	4.33e6
tutl	SID104180233	3.63e6	4.10e6	4.10e6
tutl	SID104180234	3.59e6	4.18e6	3.94e6
tutl	SID104180235	3.22e6	3.62e6	3.51e6
ND4 (retired record)	SID104201061	3.51e6	3.91e6	4.07e6
Cph	SID104197299	3.61e6	4.08e6	4.08e6
Cph	SID104198226	3.37e6	3.87e6	3.77e6
CG33090	SID104181700	3.46e6	3.95e6	3.86e6
CG33454	SID104202272	3.59e6	4.01e6	4.09e6
GILT1	SID104196357	3.41e6	3.97e6	3.72e6
CG12589	SID104192007	3.20e6	3.62e6	3.65e6
Gle1	SID104186277	3.34e6	3.66e6	3.88e6
CG31677	SID104201609	3.65e6	4.12e6	4.09e6
Dhfr	SID104196438	3.30e6	3.77e6	3.68e6
Uxt	SID104181754	3.42e6	3.90e6	3.86e6
CG13627	SID104194421	3.52e6	4.00e6	3.97e6

No new results follow: entries from further up.
target	PubChem SID	mean viability with MMS	viability with MMS, replicate 1	viability with MMS, replicate 2
CG12589	SID104192007	3.20e6	3.62e6	3.65e6
Gle1	SID104186277	3.34e6	3.66e6	3.88e6
CG31677	SID104201609	3.65e6	4.12e6	4.09e6
Dhfr	SID104196438	3.30e6	3.77e6	3.68e6

Continued:
target	PubChem SID	mean viability with MMS	viability with MMS, replicate 1	viability with MMS, replicate 2
Mvd	SID104199888	3.48e6	4.03e6	3.84e6
CG14321	SID104194592	3.62e6	4.16e6	4.04e6
CG4957	SID104182585	3.95e6	4.96e6	4.03e6
CG42812 + CG42811	SID104195159	3.61e6	4.06e6	4.14e6
CG42812 + CG42811	SID104195160	3.59e6	4.11e6	4.02e6
CngB	SID104184089	3.32e6	3.59e6	3.73e6
CG1637	SID104198657	3.45e6	3.92e6	3.92e6
CG1637	SID104199540	3.59e6	4.09e6	4.12e6
CG1637	SID104199541	3.48e6	3.93e6	3.96e6
Osi7	SID104191968	3.45e6	3.95e6	3.89e6
stmA	SID104184912	3.59e6	3.96e6	4.19e6
stmA	SID104187385	3.61e6	4.09e6	4.10e6
stmA	SID104201722	3.59e6	4.08e6	4.03e6
CG4646	SID104186668	3.56e6	3.95e6	4.05e6
CG6204	SID104195783	3.60e6	4.12e6	4.03e6
Pal1 + Pdrg1	SID104186379	3.48e6	4.03e6	3.88e6
CG11226	SID104191431	3.69e6	4.15e6	4.15e6
CG34199	SID104185659	3.29e6	3.92e6	3.67e6
CG6321	SID104190415	3.82e6	4.28e6	4.42e6
CG10177	SID104193993	3.42e6	3.88e6	3.84e6
PMCA	SID104196905	3.58e6	4.03e6	4.07e6
PMCA	SID104196906	3.72e6	4.13e6	4.18e6
PMCA	SID104196946	3.72e6	4.43e6	3.98e6
CG42527 (retired record) + Hr4	SID104198287	3.74e6	4.11e6	4.31e6
CG42527 (retired record) + Hr4	SID104201789	2.54e6	3.69e6	3.68e6
CG42527 (retired record) + Hr4	SID104202070	3.36e6	3.92e6	3.84e6
CG42527 (retired record) + Hr4	SID104202437	3.49e6	4.03e6	3.93e6
CG42527 (retired record) + Hr4	SID104202608	2.92e6	2.65e6	3.72e6
